Data taken from patent publication US20240309109A1.
These are yes or no findings as the source states them, for the method shown. Some results given as binding are weak or reduced against the parent protein; the word gives no strength. Blank lines part the entries; values can stand above or below the binder they belong to.

Sequences of proteins named here, by UniProt entry; tags and fusion partners are left off. A change or cut given only in a name is not applied to a line headed by its entry. A line that says so, or that is headed by a name, gives the form on record, which may keep a tag or linker.
Rhesus CD38 on Erythrocytes (H9ZFL1, form named): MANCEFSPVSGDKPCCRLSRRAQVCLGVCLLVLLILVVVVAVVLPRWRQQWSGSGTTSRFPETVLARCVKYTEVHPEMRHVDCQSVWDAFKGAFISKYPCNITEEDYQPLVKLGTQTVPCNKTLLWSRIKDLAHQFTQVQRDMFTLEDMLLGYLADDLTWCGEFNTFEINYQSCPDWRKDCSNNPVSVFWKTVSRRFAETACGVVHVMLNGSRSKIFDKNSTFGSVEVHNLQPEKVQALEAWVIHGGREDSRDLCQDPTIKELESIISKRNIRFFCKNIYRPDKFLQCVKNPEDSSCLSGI

Key:
[1] = target: Rhesus CD38 on Erythrocytes (Macaca mulatta) (UniProt H9ZFL1); test: FACS, Fab format, rhesus erythrocytes; column taken from the order of panel A [Continued]
[2] = target: Rhesus CD38 on PBMCs (Lymphocytes) (Macaca mulatta) (UniProt H9ZFL1); test: FACS, Fab format, rhesus lymphocytes (PBMC fraction); column taken from the order of panel A [Continued]
[3] = target: Rhesus CD38 on Erythrocytes (Macaca mulatta) (UniProt H9ZFL1); test: FACS, IgG1 format, erythrocytes; column printed 'Rhesus' on the sheet, the legend says cynomolgus
[4] = target: Rhesus CD38 on PBMCs (Lymphocytes) (Macaca mulatta) (UniProt H9ZFL1); test: FACS, IgG1 format, lymphocytes (PBMC fraction); column printed 'Rhesus' on the sheet, the legend says cynomolgus
[5] = target: Rhesus CD38 on PBMCs (Lymphocytes) (Macaca mulatta) (UniProt H9ZFL1); test: FACS, Fab format, rhesus lymphocytes (PBMC fraction)
[6] = target: Rhesus CD38 on Erythrocytes (Macaca mulatta) (UniProt H9ZFL1); test: FACS, Fab format, rhesus erythrocytes

binding [1]: binds | binding [2]: binds
B1: MOR03088 Fab (Fab, V domains shown)
VH: QVQLVESGGGLVQPGGSLRLSCAASGFTFSSYAMNWVRQAPGKGLEWVSGISSWGSSTYYADSVKGRFTISRDNSKNTLYLQMNSLRAEDTAVYYCAREDGSYMTDYFAYWGQGTLVTVSS
VL: DIELTQPPSVSVAPGQTARISCSGDNIGHYYVSWYQQKPGQAPVLVIYSDSNRPSGIPERFSGSNSGNTATLTISGTQAEDEADYYCQSYNGTYVFGGGTKLTVLG

binding [3]: binds | binding [4]: binds
B2: MOR03087 IgG1 (antibody, V domains shown)
VH: QVQLVESGGGLVQPGGSLRLSCAASGFTFSSYYMNWVRQAPGKGLEWVSGISGDPSNTYYADSVKGRFTISRDNSKNTLYLQMNSLRAEDTAVYYCARDLPLVYTGFAYWGQGTLVTVSS
VL: DIELTQPPSVSVAPGQTARISCSGDNLRHYYVYWYQQKPGQAPVLVIYGDSKRPSGIPERFSGSNSGNTATLTISGTQAEDEADYYCQTYTGGASLVFGGGTKLTVLG

binding [5]: binds | binding [6]: binds
B3: MOR03087 Fab (Fab, V domains shown)
VH: QVQLVESGGGLVQPGGSLRLSCAASGFTFSSYYMNWVRQAPGKGLEWVSGISGDPSNTYYADSVKGRFTISRDNSKNTLYLQMNSLRAEDTAVYYCARDLPLVYTGFAYWGQGTLVTVSS
VL: DIELTQPPSVSVAPGQTARISCSGDNLRHYYVYWYQQKPGQAPVLVIYGDSKRPSGIPERFSGSNSGNTATLTISGTQAEDEADYYCQTYTGGASLVFGGGTKLTVLG
